Results are given in words; binding and its absence hold for the method and conditions named. Some results given as binding are weak or reduced against the parent protein; the word gives no strength. For part of these data: Where a sequence is shown, tags or fusion partners need not be part of it.
B1: Dpb2 (protein, UniProt P24482 1-689)
chain: MFGSGNVLPVKIQPPLLRPLAYRVLSRKYGLSIKSDGLSALAEFVGTNIGANWRQGPATIKFLEQFAAVWKQQERGLFIDQSGVKEVIQEMKEREKVEWSHEHPIQHEENILGRTDDDENNSDDEMPIAADSSLQNVSLSSPMRQPTERDEYKQPFKPESSKALDWRDYFKVINASQQQRFSYNPHKMQFIFVPNKKQNGLGGIAGFLPDIEDKVQMFLTRYYLTNDRVMRNENFQNSDMFNPLSSMVSLQNELSNTNRQQQSSSMSITPIKNLLGRDAQNFLLLGLLNKNFKGNWSLEDPSGSVEIDISQTIPTQGHYYVPGCMVLVEGIYYSVGNKFHVTSMTLPPGERREITLETIGNLDLLGIHGISNNNFIARLDKDLKIRLHLLEKELTDHKFVILGANLFLDDLKIMTALSKILQKLNDDPPTLLIWQGSFTSVPVFASMSSRNISSSTQFKNNFDALATLLSRFDNLTENTTMIFIPGPNDLWGSMVSLGASGTLPQDPIPSAFTKKINKVCKNVVWSSNPTRIAYLSQEIVIFRDDLSGRFKRHRLEFPFNESEDVYTENDNMMSKDTDIVPIDELVKEPDQLPQKVQETRKLVKTILDQGHLSPFLDSLRPISWDLDHTLTLCPIPSTMVLCDTTSAQFDLTYNGCKVINPGSFIHNRRARYMEYVPSSKKTIQEEIYI
B2: Dpb3 (protein, UniProt P27344 1-201)
chain: MSNLVKEKAPVFPISKVKKIAKCDPEYVITSNVAISATAFAAELFVQNLVEESLVLAQLNSKGKTSLRLSLNSIEECVEKRDNFRFLEDAIKQLKKNSALDKKRELNMQPGRSDQEVVIEEPELHEDDGVEEEEEEDEVSEEEEPVHNEELLDDSKDQQNDKSTRSVASLLSRFQYKSALDVGEHSDSSDIEVDHTKSTDP
B3: Dpb4 (protein, UniProt Q04603 1-196)
chain: MPPKGWRKDAQGNYPTTSYIKEQENITIQDLLFPKSTIVNLAREVPQQSGKKLLINKDASLALQRGATVFVNHLLLFAREIAKSQDKKSCSVDDVLSALDHIGHSALKGPVRDKLDEYQAAVEQRKKEKLDSGEVDADGDIDMGEDKENVPVEKVKEHDEIEEQGDALQDVEESSEKKQKTESQDVETRVQNLEQT
B4: Rad17 (protein, UniProt P48581 1-401)
chain: MRINSELANKFSASTVHLEHITTALSCLTPFGSKDDVLIFIDADGLSFVRENNHVIKIQLLLSRELFMSYSYRNETEDHMKLCVKINHILDSVSVMNRNSDDIVECTLSYDGHGSPFVLIFEDSFISERVEYSTYLIKDFDTNGLELDRERISFEAIIKGEALHSALKDLKEIGCKECYVYAKTEANDENVFALISKSQLGFSKIKLPSNRSILEKLQVFDGDSTTVIDGFAVIGFFDFTSFDKIRKSTKIASKVLFRMDVHGVLSVNILSQTDDVIITDTTRPSNNRPGSIRQLQLPKDYPGIVIEVCMLEKESIDEAAQTEIELLMETNELGNRNSFKKSTIRKRYGTDKGNETSNDNLLQLNGKKIKLPSEEENNKNRESEDEENHCKYPTKDIPIFF
B5: Ddc1 (protein, UniProt Q08949 1-612)
chain: MSFKATITESGKQNIWFRAIYVLSTIQDDIKITVTTNELIAWSMNETDTTLCQVRFQKSFFEEYEFKPHEIVFGENGVQVIEDTYGNSHKLYSFRVNGRHLTTISRKPDGDGIKSFTIAVNNTSTCPESLANRLIVVIEMDSLIVKEYCPQFQPIKYDPIIINLKYKRRFLDVFGTAASDRNPQEPLDPKLLDVFTNTERELTSALFNEEVESDIRKRNQLTAADEINYICCNSTLLKNFLDNCNVNVTDEVKLEINVHRLSITAFTKAVYGKNNDLLRNALSMSNTISTLDLEHYCLFTTIEDEKQDKRSHSKRREHMKSIIFKLKDFKNFITIGPSWKTTQDGNDNISLWFCHPGDPILMQMQKPGVKLELVEVTDSNINDDILEGKFIKTAISGSKEEAGLKDNKESCESPLKSKTALKRENLPHSVAGTRNSPLKVSYLTPDNGSTVAKTYRNNTARKLFVEEQSQSTNYEQDKRFRQASSVHMNMNREQSFDIGTTHEVACPRNESNSLKRSIADICNETEDPTQQSTFAKRADTTVTWGKALPAADDEVSCSNIDRKGMLKKEKLKHMQGLLNSQNDTSNHKKQDNKEMEDGLGLTQVEKPRGIFD
B6: four small Rfc2–5 subunits (of Rad24-RFC) (complex, UniProt P40348 1-353; P38629 1-340; P40339 1-323; P38251 1-354)
chain 1: MFEGFGPNKKRKISKLAAEQSLAQQPWVEKYRPKNLDEVTAQDHAVTVLKKTLKSANLPHMLFYGPPGTGKTSTILALTKELYGPDLMKSRILELNASDERGISIVREKVKNFARLTVSKPSKHDLENYPCPPYKIIILDEADSMTADAQSALRRTMETYSGVTRFCLICNYVTRIIDPLASRCSKFRFKALDASNAIDRLRFISEQENVKCDDGVLERILDISAGDLRRGITLLQSASKGAQYLGDGKNITSTQVEELAGVVPHDILIEIVEKVKSGDFDEIKKYVNTFMKSGWSAASVVNQLHEYYITNDNFDTNFKNQISWLLFTTDSRLNNGTNEHIQLLNLLVKISQL
chain 2: MSTSTEKRSKENLPWVEKYRPETLDEVYGQNEVITTVRKFVDEGKLPHLLFYGPPGTGKTSTIVALAREIYGKNYSNMVLELNASDDRGIDVVRNQIKDFASTRQIFSKGFKLIILDEADAMTNAAQNALRRVIERYTKNTRFCVLANYAHKLTPALLSRCTRFRFQPLPQEAIERRIANVLVHEKLKLSPNAEKALIELSNGDMRRVLNVLQSCKATLDNPDEDEISDDVIYECCGAPRPSDLKAVLKSILEDDWGTAHYTLNKVRSAKGLALIDLIEGIVKILEDYELQNEETRVHLLTKLADIEYSISKGGNDQIQGSAVIGAIKASFENETVKANV
chain 3: MSKTLSLQLPWVEKYRPQVLSDIVGNKETIDRLQQIAKDGNMPHMIISGMPGIGKTTSVHCLAHELLGRSYADGVLELNASDDRGIDVVRNQIKHFAQKKLHLPPGKHKIVILDEADSMTAGAQQALRRTMELYSNSTRFAFACNQSNKIIEPLQSRCAILRYSKLSDEDVLKRLLQIIKLEDVKYTNDGLEAIIFTAEGDMRQAINNLQSTVAGHGLVNADNVFKIVDSPHPLIVKKMLLASNLEDSIQILRTDLWKKGYSSIDIVTTSFRVTKNLAQVKESVRLEMIKEIGLTHMRILEGVGTYLQLASMLAKIHKLNNKA
chain 4: MSLWVDKYRPKSLNALSHNEELTNFLKSLSDQPRDLPHLLLYGPNGTGKKTRCMALLESIFGPGVYRLKIDVRQFVTASNRKLELNVVSSPYHLEITPSDMGNNDRIVIQELLKEVAQMEQVDFQDSKDGLAHRYKCVIINEANSLTKDAQAALRRTMEKYSKNIRLIMVCDSMSPIIAPIKSRCLLIRCPAPSDSEISTILSDVVTNERIQLETKDILKRIAQASNGNLRVSLLMLESMALNNELALKSSSPIIKPDWIIVIHKLTRKIVKERSVNSLIECRAVLYDLLAHCIPANIILKELTFSLLDVETLNTTNKSSIIEYSSVFDERLSLGNKAIFHLEGFIAKVMCCLD

Sequences of proteins named here, by UniProt entry; tags and fusion partners are left off.
UniProt P21951: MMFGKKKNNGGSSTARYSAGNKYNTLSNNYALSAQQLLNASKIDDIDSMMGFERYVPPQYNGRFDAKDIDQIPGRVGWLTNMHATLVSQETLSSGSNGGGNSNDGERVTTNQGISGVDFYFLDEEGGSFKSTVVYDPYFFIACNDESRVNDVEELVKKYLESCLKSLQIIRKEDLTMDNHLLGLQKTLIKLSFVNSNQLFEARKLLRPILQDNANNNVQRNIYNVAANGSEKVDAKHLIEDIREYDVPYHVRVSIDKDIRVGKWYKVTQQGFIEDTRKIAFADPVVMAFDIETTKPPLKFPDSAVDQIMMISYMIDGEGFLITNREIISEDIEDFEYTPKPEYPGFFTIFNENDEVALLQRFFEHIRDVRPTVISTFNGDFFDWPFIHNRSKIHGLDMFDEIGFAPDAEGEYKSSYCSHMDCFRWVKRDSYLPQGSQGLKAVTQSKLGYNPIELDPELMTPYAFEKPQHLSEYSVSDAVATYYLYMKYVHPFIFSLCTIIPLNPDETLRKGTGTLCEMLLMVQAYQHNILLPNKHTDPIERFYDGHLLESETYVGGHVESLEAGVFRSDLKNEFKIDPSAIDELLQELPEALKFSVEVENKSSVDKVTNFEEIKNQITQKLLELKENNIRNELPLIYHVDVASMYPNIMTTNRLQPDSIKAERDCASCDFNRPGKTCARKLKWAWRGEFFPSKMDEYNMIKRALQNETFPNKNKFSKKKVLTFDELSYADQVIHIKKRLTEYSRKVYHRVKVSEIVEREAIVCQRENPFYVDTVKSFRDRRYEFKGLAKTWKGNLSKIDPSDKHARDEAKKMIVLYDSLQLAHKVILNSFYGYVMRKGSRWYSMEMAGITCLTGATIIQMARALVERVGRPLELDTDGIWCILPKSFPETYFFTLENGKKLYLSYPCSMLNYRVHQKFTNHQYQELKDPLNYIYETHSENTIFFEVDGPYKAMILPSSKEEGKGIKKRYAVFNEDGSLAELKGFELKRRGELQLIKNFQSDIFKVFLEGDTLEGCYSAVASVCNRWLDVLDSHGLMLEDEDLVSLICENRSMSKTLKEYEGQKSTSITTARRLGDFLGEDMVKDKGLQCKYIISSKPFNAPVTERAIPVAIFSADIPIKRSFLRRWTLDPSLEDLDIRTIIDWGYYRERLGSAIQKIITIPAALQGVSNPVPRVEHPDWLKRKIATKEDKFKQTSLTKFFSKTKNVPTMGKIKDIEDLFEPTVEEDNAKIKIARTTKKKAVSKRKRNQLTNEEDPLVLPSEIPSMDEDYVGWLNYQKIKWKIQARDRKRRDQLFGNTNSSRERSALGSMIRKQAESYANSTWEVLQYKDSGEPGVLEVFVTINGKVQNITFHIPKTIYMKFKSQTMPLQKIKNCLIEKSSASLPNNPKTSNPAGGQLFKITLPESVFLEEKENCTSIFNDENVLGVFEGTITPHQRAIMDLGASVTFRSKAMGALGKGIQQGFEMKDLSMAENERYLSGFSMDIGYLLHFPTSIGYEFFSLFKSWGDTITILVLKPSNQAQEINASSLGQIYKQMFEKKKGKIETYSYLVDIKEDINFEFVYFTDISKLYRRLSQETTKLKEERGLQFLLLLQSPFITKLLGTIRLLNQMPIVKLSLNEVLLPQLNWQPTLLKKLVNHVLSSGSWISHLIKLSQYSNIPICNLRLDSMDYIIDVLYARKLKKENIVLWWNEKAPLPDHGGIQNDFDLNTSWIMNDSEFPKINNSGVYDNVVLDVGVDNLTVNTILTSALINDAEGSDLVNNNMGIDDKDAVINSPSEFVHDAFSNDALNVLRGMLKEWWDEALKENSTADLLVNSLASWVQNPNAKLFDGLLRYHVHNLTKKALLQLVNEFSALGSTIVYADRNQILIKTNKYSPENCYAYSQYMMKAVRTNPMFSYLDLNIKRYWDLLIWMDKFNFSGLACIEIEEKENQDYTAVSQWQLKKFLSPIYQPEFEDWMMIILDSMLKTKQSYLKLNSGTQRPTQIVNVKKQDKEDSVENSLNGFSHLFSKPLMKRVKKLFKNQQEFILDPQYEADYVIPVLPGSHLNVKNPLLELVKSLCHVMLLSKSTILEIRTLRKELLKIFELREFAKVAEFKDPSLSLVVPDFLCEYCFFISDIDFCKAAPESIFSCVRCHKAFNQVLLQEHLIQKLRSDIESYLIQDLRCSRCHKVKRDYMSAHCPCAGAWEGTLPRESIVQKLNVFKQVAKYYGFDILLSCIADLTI

Tests used:
Assay in all cases: co-purification (glutathione-sepharose affinity, then gel filtration); subunits co-expressed in yeast; complex captured from the cell extract by the GST-tagged subunit on glutathione-sepharose, released with PreScission protease, then gel filtration on Superdex PC200 3.2/30 (1x GBB150)
[1] = biological target: GST-tagged Pol2, full length (bait of the Polε holoenzyme purification) (Saccharomyces cerevisiae) (UniProt P21951)
GST-Mec3 (yeast) = biological target: T1, GST-Mec3 (yeast) (UniProt Q02574)
T1 sequence: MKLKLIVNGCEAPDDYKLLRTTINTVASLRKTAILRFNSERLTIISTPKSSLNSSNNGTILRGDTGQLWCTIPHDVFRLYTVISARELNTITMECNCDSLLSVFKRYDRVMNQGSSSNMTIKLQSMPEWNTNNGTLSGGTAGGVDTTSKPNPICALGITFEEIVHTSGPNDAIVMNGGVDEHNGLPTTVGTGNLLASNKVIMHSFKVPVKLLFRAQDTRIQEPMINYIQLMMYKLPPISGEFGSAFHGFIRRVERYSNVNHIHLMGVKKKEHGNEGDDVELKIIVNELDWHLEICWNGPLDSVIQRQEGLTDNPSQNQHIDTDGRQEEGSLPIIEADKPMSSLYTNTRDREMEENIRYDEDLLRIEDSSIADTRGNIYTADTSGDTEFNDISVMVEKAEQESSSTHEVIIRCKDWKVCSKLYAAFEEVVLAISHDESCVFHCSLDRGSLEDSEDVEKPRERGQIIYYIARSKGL

GST-Rad24 (yeast) = biological target: T2, GST-Rad24 (yeast) (UniProt P32641)
T2 sequence: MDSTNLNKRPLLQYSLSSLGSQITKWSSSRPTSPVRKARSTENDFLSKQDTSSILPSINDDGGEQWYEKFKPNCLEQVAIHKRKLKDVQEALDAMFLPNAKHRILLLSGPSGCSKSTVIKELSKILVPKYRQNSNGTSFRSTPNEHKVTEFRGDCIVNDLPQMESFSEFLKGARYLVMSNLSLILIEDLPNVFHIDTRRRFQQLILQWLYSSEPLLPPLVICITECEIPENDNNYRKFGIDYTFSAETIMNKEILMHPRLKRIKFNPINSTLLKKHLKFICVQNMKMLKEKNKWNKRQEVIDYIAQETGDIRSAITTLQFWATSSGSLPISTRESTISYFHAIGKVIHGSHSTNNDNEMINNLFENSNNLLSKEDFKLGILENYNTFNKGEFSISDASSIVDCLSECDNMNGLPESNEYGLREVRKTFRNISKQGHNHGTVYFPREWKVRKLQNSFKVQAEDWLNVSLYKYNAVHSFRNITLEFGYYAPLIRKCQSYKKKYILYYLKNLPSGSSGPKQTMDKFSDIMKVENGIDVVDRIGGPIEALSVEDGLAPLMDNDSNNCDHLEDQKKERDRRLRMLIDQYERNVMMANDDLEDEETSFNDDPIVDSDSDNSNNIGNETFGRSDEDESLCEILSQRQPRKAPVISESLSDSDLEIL

Row | Binder | binding [1] | binding (GST-Mec3 (yeast)) | other results
1 | B1 | binds | – | –
2 | B2 | binds | – | –
3 | B3 | binds | – | –
4 | B4 | – | binds | –
5 | B5 | – | binds | –
6 | B6 | – | – | binding (GST-Rad24 (yeast)): binds

Source: paper PMC9791402, “Yeast 9-1-1 complex acts as a sliding clamp for DNA synthesis by DNA polymerase ε” (The Journal of Biological Chemistry, 2022)
